In patent publication US8318809B2, “Compositions and methods for treating jellyfish stings” (priority 2006, dated 2012):
Some results were stated once for a whole list of compounds, not compound by compound.

Legend:
tongue = test: Minimum response time to topically applied anesthetic on the tongue; type: in vivo, human; settings: Example 5; 5 mg of pure compound applied to the tongue
Method: Two formulations were tested in the present example to test the minimum response time of the human body to topically applied lidocaine and benzocaine:
5 mg of pure benzocaine applied to the tongue

[1] = system: sea wasp (Chiropsalmus quadumanus) stings; test: Jellyfish sting test on inner forearm of human test subjects, sea wasp; type: in vivo; settings: Example 3; 5% lidocaine in 80:20 water:propylene glycol; 5% benzocaine in 90:10 propylene glycol:acetone; sea wasps 2″ bell
From the text: These are the two most common types of stinging jellies that occur with frequency and/or regularity in normal swimming waters on the USA east coast north of Cape Canaveral.
Living healthy specimens were captured locally using trawls and dip-nets. They were maintained in flowing seawater aquariums (ca. 500 liters) for days-weeks; sea nettles maintained for long periods were fed live minnows (mummichugs).
Healthy, actively swimming jellyfish were used in all examples, and the same procedure was applied in all cases.
Stings from sea wasps were induced by manually holding a live specimen by its bell, and dragging the tentacles across the inner forearm of the test subject. […] Stings from the larger sea nettles were induced using tweezers to manually remove tentacles from living specimens and dragging them across the inner lower forearms of test subjects.
Products were applied to sting sites within 1-2 minutes unless otherwise noted below. […] Thus one forearm was used for each treatment effect, and each forearm included two sting sites: one received a treatment while the other served as an untreated control. Tests were either conducted simultaneously in duplicate using two subjects, or sequentially several hours apart using the same subject.

CCOC(=O)c1ccc(N)cc1 [benzocaine]
duration of numbness (tongue): 15 to 30 min | time to relief [1]: 1 to 2 min

CCN(CC)CC(=O)Nc1c(C)cccc1C [lidocaine]
duration of numbness (tongue): 15 to 30 min | time to relief [1]: 1 to 2 min
